Measurements: PMC10023806

Amino acid sequences for entries named in this document (tags omitted).
UniProt Q9H8M2: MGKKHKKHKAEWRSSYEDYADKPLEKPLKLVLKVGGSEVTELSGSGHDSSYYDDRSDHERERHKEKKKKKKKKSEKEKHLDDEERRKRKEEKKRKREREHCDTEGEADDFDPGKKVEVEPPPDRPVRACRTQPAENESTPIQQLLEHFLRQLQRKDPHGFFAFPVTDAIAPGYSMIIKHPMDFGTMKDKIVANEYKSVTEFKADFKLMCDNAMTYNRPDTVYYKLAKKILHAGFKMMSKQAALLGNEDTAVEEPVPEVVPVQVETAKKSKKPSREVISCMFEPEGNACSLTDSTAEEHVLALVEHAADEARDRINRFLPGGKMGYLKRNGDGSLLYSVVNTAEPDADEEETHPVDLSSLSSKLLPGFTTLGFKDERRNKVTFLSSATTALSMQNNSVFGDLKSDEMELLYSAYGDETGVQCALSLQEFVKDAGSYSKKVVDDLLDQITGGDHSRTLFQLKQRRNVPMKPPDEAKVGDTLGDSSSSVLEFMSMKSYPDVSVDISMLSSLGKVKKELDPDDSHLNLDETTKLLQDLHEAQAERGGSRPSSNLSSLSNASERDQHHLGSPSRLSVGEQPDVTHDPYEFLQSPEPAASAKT
UniProt Q92922: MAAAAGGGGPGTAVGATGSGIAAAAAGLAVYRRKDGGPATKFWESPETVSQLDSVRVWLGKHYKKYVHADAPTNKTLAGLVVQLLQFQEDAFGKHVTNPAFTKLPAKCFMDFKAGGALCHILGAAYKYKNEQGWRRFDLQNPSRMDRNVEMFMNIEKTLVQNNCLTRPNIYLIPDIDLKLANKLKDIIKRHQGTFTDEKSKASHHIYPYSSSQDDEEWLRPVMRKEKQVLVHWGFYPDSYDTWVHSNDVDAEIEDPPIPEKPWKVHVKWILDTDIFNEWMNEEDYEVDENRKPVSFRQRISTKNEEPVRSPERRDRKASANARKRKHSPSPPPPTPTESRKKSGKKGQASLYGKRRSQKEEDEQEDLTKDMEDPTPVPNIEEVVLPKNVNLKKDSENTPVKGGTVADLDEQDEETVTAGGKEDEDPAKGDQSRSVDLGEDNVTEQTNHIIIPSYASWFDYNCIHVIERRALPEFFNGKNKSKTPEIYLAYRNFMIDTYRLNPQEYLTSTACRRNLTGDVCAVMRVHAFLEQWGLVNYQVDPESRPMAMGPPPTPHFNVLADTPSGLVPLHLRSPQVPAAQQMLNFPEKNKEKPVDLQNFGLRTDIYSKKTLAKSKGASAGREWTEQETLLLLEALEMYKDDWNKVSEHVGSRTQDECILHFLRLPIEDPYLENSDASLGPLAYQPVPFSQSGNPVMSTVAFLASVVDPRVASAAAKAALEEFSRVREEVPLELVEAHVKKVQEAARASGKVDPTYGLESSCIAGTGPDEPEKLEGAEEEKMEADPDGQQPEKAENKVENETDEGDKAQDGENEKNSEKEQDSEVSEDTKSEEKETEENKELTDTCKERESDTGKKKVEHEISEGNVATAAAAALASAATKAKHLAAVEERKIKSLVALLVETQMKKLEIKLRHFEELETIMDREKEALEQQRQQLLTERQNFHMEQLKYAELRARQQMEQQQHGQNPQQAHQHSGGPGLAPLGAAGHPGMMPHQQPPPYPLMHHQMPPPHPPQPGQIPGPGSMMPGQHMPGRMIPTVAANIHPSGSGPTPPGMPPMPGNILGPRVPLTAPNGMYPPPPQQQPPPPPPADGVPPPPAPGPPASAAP
UniProt Q969G3: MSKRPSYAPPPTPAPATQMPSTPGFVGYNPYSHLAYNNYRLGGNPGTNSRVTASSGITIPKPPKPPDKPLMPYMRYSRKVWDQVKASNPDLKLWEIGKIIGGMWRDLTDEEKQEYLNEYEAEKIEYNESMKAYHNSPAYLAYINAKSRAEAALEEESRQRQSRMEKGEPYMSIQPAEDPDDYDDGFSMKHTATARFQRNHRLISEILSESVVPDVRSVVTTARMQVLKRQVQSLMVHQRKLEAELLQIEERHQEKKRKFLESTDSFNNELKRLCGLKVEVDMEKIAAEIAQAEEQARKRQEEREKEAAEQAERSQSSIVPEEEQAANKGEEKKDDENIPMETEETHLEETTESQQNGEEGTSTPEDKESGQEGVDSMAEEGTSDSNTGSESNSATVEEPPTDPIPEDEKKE
UniProt P46937: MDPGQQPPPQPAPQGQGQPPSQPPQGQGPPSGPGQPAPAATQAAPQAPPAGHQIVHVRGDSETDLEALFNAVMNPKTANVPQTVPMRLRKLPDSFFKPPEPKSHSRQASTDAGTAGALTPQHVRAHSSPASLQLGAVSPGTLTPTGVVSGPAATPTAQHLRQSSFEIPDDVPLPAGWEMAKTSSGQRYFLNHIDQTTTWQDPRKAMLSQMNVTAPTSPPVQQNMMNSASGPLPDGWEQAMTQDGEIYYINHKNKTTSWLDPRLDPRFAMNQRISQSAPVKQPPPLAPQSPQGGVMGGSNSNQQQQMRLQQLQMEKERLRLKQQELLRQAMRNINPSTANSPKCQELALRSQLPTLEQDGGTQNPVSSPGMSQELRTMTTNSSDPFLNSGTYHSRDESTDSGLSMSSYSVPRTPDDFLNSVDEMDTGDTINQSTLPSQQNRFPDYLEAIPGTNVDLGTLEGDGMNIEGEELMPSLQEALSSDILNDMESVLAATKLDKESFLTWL

Tests used:
[1] = target: T1, FLAG-BirA*-MCIDAS (human) (UniProt D6RGH6); assay: proximity labelling; small scale BioID-AP followed by western blotting: FLAG-BirA* fusions in transfected AD-293 cells, streptavidin-sepharose purification, blots for endogenous proteins
T1 sequence: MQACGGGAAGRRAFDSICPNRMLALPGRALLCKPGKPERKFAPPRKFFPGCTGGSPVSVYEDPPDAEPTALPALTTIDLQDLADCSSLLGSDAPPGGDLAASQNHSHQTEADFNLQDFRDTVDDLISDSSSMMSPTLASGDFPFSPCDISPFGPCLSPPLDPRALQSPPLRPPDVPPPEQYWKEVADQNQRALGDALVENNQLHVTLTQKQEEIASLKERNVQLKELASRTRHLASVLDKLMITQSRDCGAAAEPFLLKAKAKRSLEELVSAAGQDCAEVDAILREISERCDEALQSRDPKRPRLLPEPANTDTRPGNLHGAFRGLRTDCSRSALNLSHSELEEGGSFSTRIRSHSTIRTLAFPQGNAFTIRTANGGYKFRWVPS

[2] = target: T1, FLAG-BirA*-MCIDAS (human); assay: proximity labelling; BioID-AP western in doxycycline-induced DBTRG-05MG cells at Day 3, with or without dBRD9
[3] = target: T1, FLAG-BirA*-MCIDAS (human); assay: proximity labelling; BioID-MS: FLAG-BirA* fusions transiently expressed in AD-293 cells with 50 uM biotin; lysis in modified RIPA, benzonase; biotinylated proteins isolated on streptavidin-sepharose, trypsin, mass spectrometry, SAINTexpress; FLAG-BirA* alone as control
[4] = target: T2, FLAG-BirA*-GEMC1 (human) (UniProt A6NCL1); assay: proximity labelling; small scale BioID-AP followed by western blotting: FLAG-BirA* fusions in transfected AD-293 cells, streptavidin-sepharose purification, blots for endogenous proteins
T2 sequence: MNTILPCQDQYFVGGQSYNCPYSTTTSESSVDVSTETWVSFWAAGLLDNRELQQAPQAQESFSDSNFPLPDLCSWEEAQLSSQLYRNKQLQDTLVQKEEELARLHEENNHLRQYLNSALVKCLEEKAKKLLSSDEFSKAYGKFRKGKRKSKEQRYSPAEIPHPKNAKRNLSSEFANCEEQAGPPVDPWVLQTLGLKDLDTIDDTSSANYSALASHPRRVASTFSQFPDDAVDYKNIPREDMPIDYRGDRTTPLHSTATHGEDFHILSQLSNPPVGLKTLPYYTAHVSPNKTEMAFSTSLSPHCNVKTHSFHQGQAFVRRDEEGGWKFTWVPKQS

[5] = target: T2, FLAG-BirA*-GEMC1 (human); assay: proximity labelling; BioID-MS: FLAG-BirA* fusions transiently expressed in AD-293 cells with 50 uM biotin; lysis in modified RIPA, benzonase; biotinylated proteins isolated on streptavidin-sepharose, trypsin, mass spectrometry, SAINTexpress; FLAG-BirA* alone as control
[6] = target: T3, FLAG-BirA*-GEMC1 (human), A6NCL1; assay: as above; settings: remark: other sources report otherwise
T3 chain: T2 sequence

Molecule: BRD9 (from UniProt Q9H8M2 1-597)
- binding [1]: binds
- binding [2]: binds
- binding [3]: binds

Molecule: SMARCC1 (BAF155) (from UniProt Q92922 1-1105)
- binding [1]: binds
- binding [4]: binds

Molecule: SMARCE1 (BAF57) (from UniProt Q969G3 1-411)
- binding [1]: binds
- binding [4]: binds

Molecule: YAP1 (from UniProt P46937 1-504)
- binding [1]: binds
- binding [4]: binds
- binding [3]: binds
- binding [5]: binds

B1: RB (RB1) (protein, UniProt P06400 1-928)
chain: MPPKTPRKTAATAAAAAAEPPAPPPPPPPEEDPEQDSGPEDLPLVRLEFEETEEPDFTALCQKLKIPDHVRERAWLTWEKVSSVDGVLGGYIQKKKELWGICIFIAAVDLDEMSFTFTELQKNIEISVHKFFNLLKEIDTSTKVDNAMSRLLKKYDVLFALFSKLERTCELIYLTQPSSSISTEINSALVLKVSWITFLLAKGEVLQMEDDLVISFQLMLCVLDYFIKLSPPMLLKEPYKTAVIPINGSPRTPRRGQNRSARIAKQLENDTRIIEVLCKEHECNIDEVKNVYFKNFIPFMNSLGLVTSNGLPEVENLSKRYEEIYLKNKDLDARLFLDHDKTLQTDSIDSFETQRTPRKSNLDEEVNVIPPHTPVRTVMNTIQQLMMILNSASDQPSENLISYFNNCTVNPKESILKRVKDIGYIFKEKFAKAVGQGCVEIGSQRYKLGVRLYYRVMESMLKSEEERLSIQNFSKLLNDNIFHMSLLACALEVVMATYSRSTSQNLDSGTDLSFPWILNVLNLKAFDFYKVIESFIKAEGNLTREMIKHLERCEHRIMESLAWLSDSPLFDLIKQSKDREGPTDHLESACPLNLPLQNNHTAADMYLSPVRSPKKKGSTTRVNSTANAETQATSAFQTQKPLKSTSLSLFYKKVYRLAYLRLNTLCERLLSEHPELEHIIWTLFQHTLQNEYELMRDRHLDQIMMCSMYGICKVKNIDLKFKIIVTAYKDLPHAVQETFKRVLIKEEEYDSIIVFYNSVFMQRLKTNILQYASTRPPTLSPIPHIPRSPYKFPSSPLRIPGGNIYISPLKSPYKISEGLPTPTKMTPRSRILVSIGESFGTSEKFQKINQMVCNSDRVLKRSAEGSNPPKPLKKLRFDIEGSDEADGSKHLPGESKFQQKLAEMTSTRTRMQKQKMNDSMDTSNKEEK
- binding [3]: binds
- binding [5]: binds

B2: p107 (RBL1) (protein, UniProt P28749 1-1068)
chain: MFEDKPHAEGAAVVAAAGEALQALCQELNLDEGSAAEALDDFTAIRGNYSLEGEVTHWLACSLYVACRKSIIPTVGKGIMEGNCVSLTRILRSAKLSLIQFFSKMKKWMDMSNLPQEFRERIERLERNFEVSTVIFKKYEPIFLDIFQNPYEEPPKLPRSRKQRRIPCSVKDLFNFCWTLFVYTKGNFRMIGDDLVNSYHLLLCCLDLIFANAIMCPNRQDLLNPSFKGLPSDFHTADFTASEEPPCIIAVLCELHDGLLVEAKGIKEHYFKPYISKLFDRKILKGECLLDLSSFTDNSKAVNKEYEEYVLTVGDFDERIFLGADAEEEIGTPRKFTRDTPLGKLTAQANVEYNLQQHFEKKRSFAPSTPLTGRRYLREKEAVITPVASATQSVSRLQSIVAGLKNAPSDQLINIFESCVRNPVENIMKILKGIGETFCQHYTQSTDEQPGSHIDFAVNRLKLAEILYYKILETVMVQETRRLHGMDMSVLLEQDIFHRSLMACCLEIVLFAYSSPRTFPWIIEVLNLQPFYFYKVIEVVIRSEEGLSRDMVKHLNSIEEQILESLAWSHDSALWEALQVSANKVPTCEEVIFPNNFETGNGGNVQGHLPLMPMSPLMHPRVKEVRTDSGSLRRDMQPLSPISVHERYSSPTAGSAKRRLFGEDPPKEMLMDKIITEGTKLKIAPSSSITAENVSILPGQTLLTMATAPVTGTTGHKVTIPLHGVANDAGEITLIPLSMNTNQESKVKSPVSLTAHSLIGASPKQTNLTKAQEVHSTGINRPKRTGSLALFYRKVYHLASVRLRDLCLKLDVSNELRRKIWTCFEFTLVHCPDLMKDRHLDQLLLCAFYIMAKVTKEERTFQEIMKSYRNQPQANSHVYRSVLLKSIPREVVAYNKNINDDFEMIDCDLEDATKTPDCSSGPVKEERGDLIKFYNTIYVGRVKSFALKYDLANQDHMMDAPPLSPFPHIKQQPGSPRRISQQHSIYISPHKNGSGLTPRSALLYKFNGSPSKSLKDINNMIRQGEQRTKKRVIAIDSDAESPAKRVCQENDDVLLKRLQDVVSERANH
- binding [3]: binds
- binding [5]: binds

B3: CDT1, Q9H211 1-546 (protein)
chain: MEQRRVTDFFARRRPGPPRIAPPKLACRTPSPARPALRAPASATSGSRKRARPPAAPGRDQARPPARRRLRLSVDEVSSPSTPEAPDIPACPSPGQKIKKSTPAAGQPPHLTSAQDQDTISELASCLQRARELGARVRALKASAQDAGESCTPEAEGRPEEPCGEKAPAYQRFHALAQPGLPGLVLPYKYQVLAEMFRSMDTIVGMLHNRSETPTFAKVQRGVQDMMRRRFEECNVGQIKTVYPASYRFRQERSVPTFKDGTRRSDYQLTIEPLLEQEADGAAPQLTASRLLQRRQIFSQKLVEHVKEHHKAFLASLSPAMVVPEDQLTRWHPRFNVDEVPDIEPAALPQPPATEKLTTAQEVLARARNLISPRMEKALSQLALRSAAPSSPGSPRPALPATPPATPPAASPSALKGVSQDLLERIRAKEAQKQLAQMTRCPEQEQRLQRLERLPELARVLRSVFVSERKPALSMEVACARMVGSCCTIMSPGEMEKHLLLLSELLPDWLSLHRIRTDTYVKLDKAADLAHITARLAHQTRAEEGL
- binding [6]: binds

B4: TP73 (protein, UniProt O15350 1-636)
chain: MAQSTATSPDGGTTFEHLWSSLEPDSTYFDLPQSSRGNNEVVGGTDSSMDVFHLEGMTTSVMAQFNLLSSTMDQMSSRAASASPYTPEHAASVPTHSPYAQPSSTFDTMSPAPVIPSNTDYPGPHHFEVTFQQSSTAKSATWTYSPLLKKLYCQIAKTCPIQIKVSTPPPPGTAIRAMPVYKKAEHVTDVVKRCPNHELGRDFNEGQSAPASHLIRVEGNNLSQYVDDPVTGRQSVVVPYEPPQVGTEFTTILYNFMCNSSCVGGMNRRPILIIITLEMRDGQVLGRRSFEGRICACPGRDRKADEDHYREQQALNESSAKNGAASKRAFKQSPPAVPALGAGVKKRRHGDEDTYYLQVRGRENFEILMKLKESLELMELVPQPLVDSYRQQQQLLQRPSHLQPPSYGPVLSPMNKVHGGMNKLPSVNQLVGQPPPHSSAATPNLGPVGPGMLNNHGHAVPANGEMSSSHSAQSMVSGSHCTPPPPYHADPSLVSFLTGLGCPNCIEYFTSQGLQSIYHLQNLTIEDLGALKIPEQYRMTIWRGLQDLKQGHDYSTAQQLLRSSNAATISIGGSGELQRQRVMEAVHFRVRHTITIPNRGGPGGGPDEWADFGFDLPDCKARKQPIKEEFTEAEIH
- binding [3]: binds
- binding [5]: binds

These are yes or no findings as the source states them, for the method shown. Binding seen in cells or lysates may run through a third protein. Here binding means that the protein was enriched with, or labelled near, the bait; the list need not be complete. Sequences can lack the tags named with a protein.
